The other results are listed elsewhere or left out.
Compound: Cc1cn(-c2cc(NC(=O)c3ccc(C)c(Nc4nccc(-c5cccnc5)n4)c3)cc(C(F)(F)F)c2)cn1 [nilotinib]
Experiment: log2 fold change, soluble protein after heating vs DMSO (PISA); higher = thermal stabilisation; K562 lysate, 10 uM; active = over 0.2 and 3.5 SD of the protein, either way, in both replicates (recomputed)
Procedure, shortened: (§1)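 A 30 min treatment with 10 μM compound was applied to crude K562 extract at 1 mg/mL protein in PBS pH 7.4 with 1 mM MgCl2. Heating for 3 min spanned 48°C-58°C, after which aliquots were pooled, adjusted to 0.5% NP-40 at 4°C and spun at 21,000xg for 90 min. TMTpro 16plex LC-MS/MS of the supernatant, with channel sums equalised, gave values recorded as log-two fold change in thermal stability against solvent controls, from duplicates.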

Chains of the proteins cited; added tags and fusions are not shown. Lines headed by an entry give the natural chain unless they say otherwise; changes in a name come on top.
UniProt P49902: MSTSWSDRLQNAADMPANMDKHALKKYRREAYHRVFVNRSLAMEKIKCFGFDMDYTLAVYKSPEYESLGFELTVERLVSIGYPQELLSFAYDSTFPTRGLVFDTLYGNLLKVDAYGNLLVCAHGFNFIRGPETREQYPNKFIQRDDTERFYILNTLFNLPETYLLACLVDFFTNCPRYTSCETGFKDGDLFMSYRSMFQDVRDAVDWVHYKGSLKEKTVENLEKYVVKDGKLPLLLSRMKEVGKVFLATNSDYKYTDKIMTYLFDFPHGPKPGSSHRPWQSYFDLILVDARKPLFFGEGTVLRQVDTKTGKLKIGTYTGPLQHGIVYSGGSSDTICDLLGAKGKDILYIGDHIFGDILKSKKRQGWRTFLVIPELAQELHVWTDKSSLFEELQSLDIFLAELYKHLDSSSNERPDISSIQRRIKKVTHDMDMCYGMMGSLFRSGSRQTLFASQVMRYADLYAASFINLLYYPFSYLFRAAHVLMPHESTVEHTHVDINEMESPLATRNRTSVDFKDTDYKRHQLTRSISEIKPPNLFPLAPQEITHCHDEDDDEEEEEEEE
UniProt Q96IY1: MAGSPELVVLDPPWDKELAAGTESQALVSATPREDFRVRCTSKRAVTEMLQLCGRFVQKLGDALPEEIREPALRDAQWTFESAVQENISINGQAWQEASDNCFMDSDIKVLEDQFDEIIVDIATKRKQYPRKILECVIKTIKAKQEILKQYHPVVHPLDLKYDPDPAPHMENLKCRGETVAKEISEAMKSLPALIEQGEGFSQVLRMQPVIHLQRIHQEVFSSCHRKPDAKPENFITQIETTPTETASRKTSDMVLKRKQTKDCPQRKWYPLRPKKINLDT
UniProt Q9UNZ2: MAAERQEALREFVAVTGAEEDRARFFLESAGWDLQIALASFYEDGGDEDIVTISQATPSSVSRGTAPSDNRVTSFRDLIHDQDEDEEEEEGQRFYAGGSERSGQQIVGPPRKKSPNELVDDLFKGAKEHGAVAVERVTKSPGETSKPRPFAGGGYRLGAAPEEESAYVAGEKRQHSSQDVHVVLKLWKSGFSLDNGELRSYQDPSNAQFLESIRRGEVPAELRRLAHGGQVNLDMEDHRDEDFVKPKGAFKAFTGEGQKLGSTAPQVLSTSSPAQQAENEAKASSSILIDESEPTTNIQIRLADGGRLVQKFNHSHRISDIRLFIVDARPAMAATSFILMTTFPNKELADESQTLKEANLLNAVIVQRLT
UniProt Q96P11: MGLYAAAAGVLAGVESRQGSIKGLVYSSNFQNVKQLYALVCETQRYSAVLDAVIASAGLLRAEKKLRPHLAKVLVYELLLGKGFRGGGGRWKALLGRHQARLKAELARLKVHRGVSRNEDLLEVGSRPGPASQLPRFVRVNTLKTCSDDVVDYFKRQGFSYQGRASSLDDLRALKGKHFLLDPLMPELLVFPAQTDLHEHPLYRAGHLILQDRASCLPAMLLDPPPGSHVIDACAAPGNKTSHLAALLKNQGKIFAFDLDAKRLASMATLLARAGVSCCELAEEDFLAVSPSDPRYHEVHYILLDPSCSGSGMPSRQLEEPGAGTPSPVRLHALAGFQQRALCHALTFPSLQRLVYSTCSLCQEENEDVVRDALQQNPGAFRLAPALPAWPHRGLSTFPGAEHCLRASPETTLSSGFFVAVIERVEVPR
UniProt Q8WTT2: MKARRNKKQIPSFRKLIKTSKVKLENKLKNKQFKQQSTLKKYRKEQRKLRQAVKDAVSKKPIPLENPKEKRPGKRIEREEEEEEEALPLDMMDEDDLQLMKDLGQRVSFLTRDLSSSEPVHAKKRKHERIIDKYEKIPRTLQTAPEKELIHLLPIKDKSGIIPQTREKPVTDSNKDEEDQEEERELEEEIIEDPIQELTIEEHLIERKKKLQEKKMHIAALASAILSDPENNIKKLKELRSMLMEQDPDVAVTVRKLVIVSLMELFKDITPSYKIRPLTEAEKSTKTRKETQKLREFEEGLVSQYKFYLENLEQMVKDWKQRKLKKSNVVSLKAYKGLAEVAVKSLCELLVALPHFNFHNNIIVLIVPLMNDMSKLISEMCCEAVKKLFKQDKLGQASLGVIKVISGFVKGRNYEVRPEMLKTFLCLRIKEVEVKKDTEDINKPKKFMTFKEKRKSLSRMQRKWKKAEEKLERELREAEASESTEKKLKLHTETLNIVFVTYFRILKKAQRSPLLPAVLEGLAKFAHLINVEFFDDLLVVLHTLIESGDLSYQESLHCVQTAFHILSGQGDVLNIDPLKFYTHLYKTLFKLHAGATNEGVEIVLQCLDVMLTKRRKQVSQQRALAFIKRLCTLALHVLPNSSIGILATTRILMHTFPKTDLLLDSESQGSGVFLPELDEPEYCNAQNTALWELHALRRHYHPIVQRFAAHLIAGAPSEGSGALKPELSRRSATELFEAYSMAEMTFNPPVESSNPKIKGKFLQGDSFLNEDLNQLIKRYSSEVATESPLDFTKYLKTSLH
UniProt Q96D46: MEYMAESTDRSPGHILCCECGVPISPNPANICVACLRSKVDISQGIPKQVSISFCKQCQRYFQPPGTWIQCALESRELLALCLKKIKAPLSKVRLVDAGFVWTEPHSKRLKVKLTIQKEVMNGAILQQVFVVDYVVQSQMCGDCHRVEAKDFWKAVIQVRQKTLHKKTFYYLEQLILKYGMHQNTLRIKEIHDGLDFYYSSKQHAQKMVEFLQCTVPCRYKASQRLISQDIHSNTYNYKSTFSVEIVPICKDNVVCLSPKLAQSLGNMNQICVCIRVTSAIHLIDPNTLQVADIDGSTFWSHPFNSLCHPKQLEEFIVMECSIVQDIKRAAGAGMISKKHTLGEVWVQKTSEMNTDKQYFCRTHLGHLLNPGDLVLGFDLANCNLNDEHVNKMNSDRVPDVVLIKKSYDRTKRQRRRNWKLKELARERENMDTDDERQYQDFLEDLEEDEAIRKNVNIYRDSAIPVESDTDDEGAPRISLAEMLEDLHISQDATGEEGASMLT
UniProt Q9NXX6: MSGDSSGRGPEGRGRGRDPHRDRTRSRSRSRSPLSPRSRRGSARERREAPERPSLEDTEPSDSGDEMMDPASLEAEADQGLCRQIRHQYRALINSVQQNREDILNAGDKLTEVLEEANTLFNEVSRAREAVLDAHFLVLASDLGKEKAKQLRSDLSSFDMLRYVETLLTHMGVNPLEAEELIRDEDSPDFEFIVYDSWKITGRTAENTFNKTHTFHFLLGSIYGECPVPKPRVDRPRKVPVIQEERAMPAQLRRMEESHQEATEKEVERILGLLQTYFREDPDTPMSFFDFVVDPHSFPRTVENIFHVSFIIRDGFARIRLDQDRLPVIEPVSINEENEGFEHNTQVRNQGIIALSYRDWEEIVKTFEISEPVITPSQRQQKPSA
UniProt Q96RS6: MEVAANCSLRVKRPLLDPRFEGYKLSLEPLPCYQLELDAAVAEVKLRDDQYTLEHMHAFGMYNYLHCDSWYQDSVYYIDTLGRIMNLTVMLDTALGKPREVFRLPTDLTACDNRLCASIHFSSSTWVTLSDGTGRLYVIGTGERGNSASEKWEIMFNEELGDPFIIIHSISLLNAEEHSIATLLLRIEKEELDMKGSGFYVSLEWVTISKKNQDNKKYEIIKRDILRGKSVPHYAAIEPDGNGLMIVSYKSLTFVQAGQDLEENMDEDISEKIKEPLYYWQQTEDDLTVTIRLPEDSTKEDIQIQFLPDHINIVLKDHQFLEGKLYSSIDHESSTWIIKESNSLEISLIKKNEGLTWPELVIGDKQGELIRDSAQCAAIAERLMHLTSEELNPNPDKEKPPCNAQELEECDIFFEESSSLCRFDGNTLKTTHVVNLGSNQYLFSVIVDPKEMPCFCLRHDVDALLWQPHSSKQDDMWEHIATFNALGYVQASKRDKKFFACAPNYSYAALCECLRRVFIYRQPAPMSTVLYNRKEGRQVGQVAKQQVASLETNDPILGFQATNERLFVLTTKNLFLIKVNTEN
UniProt Q5JPE7: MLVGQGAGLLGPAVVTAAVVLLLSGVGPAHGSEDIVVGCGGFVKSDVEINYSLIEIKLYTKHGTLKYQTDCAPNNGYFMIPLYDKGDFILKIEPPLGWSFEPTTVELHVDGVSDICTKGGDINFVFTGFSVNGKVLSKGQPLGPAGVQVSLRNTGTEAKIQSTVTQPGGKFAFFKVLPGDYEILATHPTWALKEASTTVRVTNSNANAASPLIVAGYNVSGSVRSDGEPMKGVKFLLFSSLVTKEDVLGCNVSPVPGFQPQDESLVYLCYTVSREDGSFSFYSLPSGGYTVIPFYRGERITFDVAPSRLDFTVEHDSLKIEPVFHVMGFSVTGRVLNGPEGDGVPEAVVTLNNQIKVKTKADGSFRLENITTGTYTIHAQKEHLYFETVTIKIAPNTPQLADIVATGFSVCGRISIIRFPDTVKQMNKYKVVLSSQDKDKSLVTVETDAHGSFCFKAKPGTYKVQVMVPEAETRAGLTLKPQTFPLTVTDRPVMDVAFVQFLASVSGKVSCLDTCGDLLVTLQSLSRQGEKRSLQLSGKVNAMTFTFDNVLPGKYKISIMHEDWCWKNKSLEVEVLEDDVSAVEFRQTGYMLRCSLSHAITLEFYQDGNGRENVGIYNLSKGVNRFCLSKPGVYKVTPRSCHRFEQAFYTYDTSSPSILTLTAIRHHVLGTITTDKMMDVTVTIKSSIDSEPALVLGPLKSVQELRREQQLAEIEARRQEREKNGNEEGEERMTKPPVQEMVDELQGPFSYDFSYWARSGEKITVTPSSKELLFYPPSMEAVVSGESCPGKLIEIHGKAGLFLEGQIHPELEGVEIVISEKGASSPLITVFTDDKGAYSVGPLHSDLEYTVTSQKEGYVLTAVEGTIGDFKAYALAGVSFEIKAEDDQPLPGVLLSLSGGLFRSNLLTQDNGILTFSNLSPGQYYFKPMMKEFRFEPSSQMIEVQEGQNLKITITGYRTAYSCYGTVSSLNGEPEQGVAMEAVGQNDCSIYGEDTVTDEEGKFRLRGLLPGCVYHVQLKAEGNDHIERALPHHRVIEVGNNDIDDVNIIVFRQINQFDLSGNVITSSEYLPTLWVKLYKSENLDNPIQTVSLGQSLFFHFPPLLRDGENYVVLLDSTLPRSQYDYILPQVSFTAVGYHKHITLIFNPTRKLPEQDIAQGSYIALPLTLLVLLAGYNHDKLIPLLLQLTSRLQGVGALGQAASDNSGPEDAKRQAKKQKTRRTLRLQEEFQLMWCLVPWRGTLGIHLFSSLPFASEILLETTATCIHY
UniProt Q8NC60: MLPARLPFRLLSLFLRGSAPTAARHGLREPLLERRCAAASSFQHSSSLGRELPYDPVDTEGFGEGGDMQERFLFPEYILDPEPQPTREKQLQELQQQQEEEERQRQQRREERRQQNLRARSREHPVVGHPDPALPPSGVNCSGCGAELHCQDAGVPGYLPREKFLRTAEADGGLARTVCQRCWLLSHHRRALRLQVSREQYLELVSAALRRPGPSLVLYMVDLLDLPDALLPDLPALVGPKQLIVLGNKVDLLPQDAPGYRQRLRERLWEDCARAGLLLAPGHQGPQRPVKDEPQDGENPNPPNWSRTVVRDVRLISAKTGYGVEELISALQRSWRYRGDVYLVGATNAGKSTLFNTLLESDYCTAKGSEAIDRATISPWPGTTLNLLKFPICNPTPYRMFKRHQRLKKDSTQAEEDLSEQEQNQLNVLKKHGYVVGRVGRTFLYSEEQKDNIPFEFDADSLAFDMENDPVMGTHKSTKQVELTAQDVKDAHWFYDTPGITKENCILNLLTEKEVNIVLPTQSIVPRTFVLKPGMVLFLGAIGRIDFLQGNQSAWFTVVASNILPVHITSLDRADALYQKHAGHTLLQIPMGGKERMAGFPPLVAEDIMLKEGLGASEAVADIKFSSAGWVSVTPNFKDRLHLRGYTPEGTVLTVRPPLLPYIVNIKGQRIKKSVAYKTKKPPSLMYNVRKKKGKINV
UniProt Q8TCD5: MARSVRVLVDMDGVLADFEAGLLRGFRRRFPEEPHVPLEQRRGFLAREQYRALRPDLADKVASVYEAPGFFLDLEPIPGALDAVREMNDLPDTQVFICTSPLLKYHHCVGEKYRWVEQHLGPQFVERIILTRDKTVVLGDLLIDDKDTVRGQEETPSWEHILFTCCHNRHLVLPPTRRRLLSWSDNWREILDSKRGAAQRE
UniProt Q15738: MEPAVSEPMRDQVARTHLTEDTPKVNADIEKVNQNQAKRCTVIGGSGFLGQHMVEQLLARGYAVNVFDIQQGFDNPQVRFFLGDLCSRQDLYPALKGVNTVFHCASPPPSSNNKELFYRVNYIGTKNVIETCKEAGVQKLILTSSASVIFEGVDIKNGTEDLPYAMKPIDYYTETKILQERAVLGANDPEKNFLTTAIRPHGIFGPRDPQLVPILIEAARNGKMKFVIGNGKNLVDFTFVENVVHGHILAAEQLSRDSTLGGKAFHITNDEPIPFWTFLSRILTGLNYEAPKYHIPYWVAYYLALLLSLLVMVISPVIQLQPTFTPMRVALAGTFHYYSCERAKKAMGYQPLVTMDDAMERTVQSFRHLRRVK

log2 fold change, inactive:
NUDT5 (UniProt Q9UKK9) 0.021
NOL12 (UniProt Q9UGY1) 0.037
NUBP1 (UniProt P53384) 0.027
NUMBL (UniProt Q9Y6R0) 0.038
NUDT12 (UniProt Q9BQG2) 0.033
NMNAT1 (UniProt Q9HAN9) 0.012
NT5C2 (UniProt P49902) 0.021
NSRP1 (UniProt Q9H0G5) 0.011
NUDT4 isoform 2 (UniProt Q9NZJ9) -0.004
NSL1 (UniProt Q96IY1) -0.018
NSFL1C isoform 5 (UniProt Q9UNZ2) -0.003
NSUN5 isoform 2 (UniProt Q96P11) 0.016
NRAS (UniProt P01111) -0.034
NOC3L (UniProt Q8WTT2) -0.002
NMD3 (UniProt Q96D46) 0.025
NSMCE4A (UniProt Q9NXX6) -0.026
NUDCD1 (UniProt Q96RS6) 0.01
NOMO2 (UniProt Q5JPE7) 0.02
NOA1 (UniProt Q8NC60) -0.041
NOP53 (UniProt Q9NZM5) -0.019
NOSIP (UniProt Q9Y314) 0.005
NUDCD2 (UniProt Q8WVJ2) 0.011
NSF (UniProt P46459) -0.002
NUMA1 (UniProt Q14980) 0.002
NME2 isoform 2 (UniProt P22392) 0.021
NUDT15 (UniProt Q9NV35) -0.019
NT5C (UniProt Q8TCD5) 0.015
NSDHL (UniProt Q15738) 0.012
NSUN2 (UniProt Q08J23) 0.013
NT5DC1 (UniProt Q5TFE4) -0.006
NRBP2 (UniProt Q9NSY0) -0.065
NT5DC2 isoform 2 (UniProt Q9H857) 0.025

Compound: Cc1nc(Nc2n[nH]c3c2CN(C(=O)N[C@H](CN(C)C)c2ccccc2)C3(C)C)c2sccc2n1
Experiment: as above
Procedure, shortened: as §1

log2 fold change, inactive:
NUDT5 (UniProt Q9UKK9) 0
NOL12 (UniProt Q9UGY1) 0.215
NUBP1 (UniProt P53384) -0.011
NUMBL (UniProt Q9Y6R0) -0.013
NUDT12 (UniProt Q9BQG2) 0.008
NMNAT1 (UniProt Q9HAN9) -0.048
NT5C2 (UniProt P49902) -0.01
NSRP1 (UniProt Q9H0G5) 0.023
NUDT4 isoform 2 (UniProt Q9NZJ9) 0.012
NSL1 (UniProt Q96IY1) 0.005
NSFL1C isoform 5 (UniProt Q9UNZ2) 0.015
NSUN5 isoform 2 (UniProt Q96P11) -0.009
NRAS (UniProt P01111) 0.005
NOC3L (UniProt Q8WTT2) -0.09
NMD3 (UniProt Q96D46) 0.028
NSMCE4A (UniProt Q9NXX6) -0.023
NUDCD1 (UniProt Q96RS6) -0.007
NOMO2 (UniProt Q5JPE7) -0.014
NOA1 (UniProt Q8NC60) -0.012
NOP53 (UniProt Q9NZM5) 0.028
NOSIP (UniProt Q9Y314) 0.009
NUDCD2 (UniProt Q8WVJ2) 0.026
NSF (UniProt P46459) 0.011
NUMA1 (UniProt Q14980) -0.062
NME2 isoform 2 (UniProt P22392) 0.001
NUDT15 (UniProt Q9NV35) 0.06
NT5C (UniProt Q8TCD5) -0.048
NSDHL (UniProt Q15738) 0.074
NSUN2 (UniProt Q08J23) -0.004
NT5DC1 (UniProt Q5TFE4) 0.047
NRBP2 (UniProt Q9NSY0) -0.027
NT5DC2 isoform 2 (UniProt Q9H857) -0.041

Compound: Cc1nc(Nc2ncc(C(=O)Nc3c(C)cccc3Cl)s2)cc(N2CCN(CCO)CC2)n1 [dasatinib]
Experiment: as above
Procedure, shortened: as §1

log2 fold change, inactive:
NUDT5 (UniProt Q9UKK9) 0.045
NOL12 (UniProt Q9UGY1) -0.007
NUBP1 (UniProt P53384) 0.008
NUMBL (UniProt Q9Y6R0) -0.041
NUDT12 (UniProt Q9BQG2) 0.043
NMNAT1 (UniProt Q9HAN9) -0.016
NT5C2 (UniProt P49902) 0.003
NSRP1 (UniProt Q9H0G5) 0.033
NUDT4 isoform 2 (UniProt Q9NZJ9) 0.13
NSL1 (UniProt Q96IY1) -0.01
NSFL1C isoform 5 (UniProt Q9UNZ2) 0.043
NSUN5 isoform 2 (UniProt Q96P11) -0.043
NRAS (UniProt P01111) 0.011
NOC3L (UniProt Q8WTT2) -0.022
NMD3 (UniProt Q96D46) -0.042
NSMCE4A (UniProt Q9NXX6) -0.017
NUDCD1 (UniProt Q96RS6) -0.015
NOMO2 (UniProt Q5JPE7) -0.018
NOA1 (UniProt Q8NC60) -0.05
NOP53 (UniProt Q9NZM5) -0.015
NOSIP (UniProt Q9Y314) -0.018
NUDCD2 (UniProt Q8WVJ2) 0.02
NSF (UniProt P46459) -0.014
NUMA1 (UniProt Q14980) -0.006
NME2 isoform 2 (UniProt P22392) 0.015
NUDT15 (UniProt Q9NV35) -0.035
NT5C (UniProt Q8TCD5) -0.015
NSDHL (UniProt Q15738) 0.001
NSUN2 (UniProt Q08J23) -0.023
NT5DC1 (UniProt Q5TFE4) 0.021
NRBP2 (UniProt Q9NSY0) 0.007
NT5DC2 isoform 2 (UniProt Q9H857) 0.067
